Test results reported in PubChem BioAssay (EPA / NIEHS).
Several values for one entry are separate records, joined by “and”; a condition that tells them apart may be missing. Equal values may be shown once. This list was built around the results that the source calls inconclusive (neither active nor inactive); the mix of calls is not that of the screen. Potencies of inconclusive entries are doubtful fits and often do not repeat. Some compounds were tested as several samples or in several runs, with calls that do not always agree. Activity calls are given as the source filed them. Rule for the calls: active = hit-call score of the fitted dose curve at least 0.9, where 1 is the maximum; inconclusive = response in the unintended direction; inactive = score below 0.9.

Assay: CCTE_Mundy_HCI_hN2_NOG_NeuronCount: CCTE's Neurite Outgrowth Assay in human hN2 cells for Neuron Count, Mundy Lab (AID 2284221)
Summary of the method: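 Read-out is the number of betaIII-tubulin-positive neurons imaged by automated high-content analysis, with DMSO as negative control.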

| SMILES | outcome | AC50 |
| --- | --- | --- |
| OCCOCCO | inactive | – |
| COP(=O)(OC)O/C(=C\Cl)c1cc(Cl)c(Cl)cc1Cl | – | active: 7.22 µM |
| CCOP(=S)(OCC)SCSC(C)(C)C | inactive | – |
| CC(C)(C)C(O)(CCc1ccc(Cl)cc1)Cn1cncn1 (stereo unspecified) | – | inconclusive: 0.000357 µM |
| CCCSP(=O)(OCC)SCCC | inactive | – |
| CNC(=O)CSP(=O)(OC)OC | – | inconclusive: 0.00218 µM |
| O=P1(N(CCCl)CCCl)NCCCO1 (stereo unspecified) | – | inconclusive: 0.125 µM |
| ClC1=C(Cl)[C@]2(Cl)[C@@H]3[C@@H](Cl)[C@H]4O[C@H]4[C@@H]3C1(Cl)C2(Cl)Cl | – | active: 5.59 µM |
| CCC1(c2ccccc2)C(=O)N=C(O)NC1=O (stereo unspecified) | inactive | – |
| COP(N)(=O)SC (stereo unspecified) | – | inconclusive: 0.00242 µM |
| Nc1cc(Cl)cc(C(=O)O)c1Cl | inactive | – |

Assay: CCTE_Mundy_HCI_hNP1_Pro_ResponderAvgInten: CCTE's Proliferation Assay in human neuroprogenitor cells, Mundy Lab (AID 2284224);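 note: human neural progenitor cells hNP1 derived from WA09 embryonic stem cells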
Summary of the method: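 Human neuroprogenitors (hNP1, WA09 lineage) receive test chemical after 40 to 44 hours of attachment. A four-hour BrdU pulse begins twenty hours later, followed by fixation and high content imaging; signal is referenced to DMSO controls.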

| SMILES | AC50 | outcome |
| --- | --- | --- |
| O=S(=O)(O)C(F)(F)C(F)(F)C(F)(F)C(F)(F)C(F)(F)C(F)(F)F | inconclusive: 93.3 µM | inactive |
| C=C(C)CN(CC)c1c([N+](=O)[O-])cc(C(F)(F)F)cc1[N+](=O)[O-] | active: 19 µM | – |
| CCOP(=O)(OCC)Oc1nc(Cl)c(Cl)cc1Cl | active: 73.7 µM | inactive |
| O=C(O)C(F)(F)OC(F)(F)C(F)(F)OC(F)(F)F | inconclusive: 15 µM | – |
| COP(=O)(OC)O/C(=C\Cl)c1cc(Cl)c(Cl)cc1Cl | inconclusive: 0.883 nM and active: 67 µM | – |
| CCOCn1c(-c2ccc(Cl)cc2)c(C#N)c(Br)c1C(F)(F)F | active: 9.2 µM | – |
| CC[C@H](C)[C@H]1O[C@]2(C=C[C@@H]1C)C[C@@H]1C[C@@H](C/C=C(\C)[C@@H](O[C@H]3C[C@H](OC)[C@@H](O[C@H]4C[C@H](OC)[C@@H](O)[C@H](C)O4)[C@H](C)O3)[C@@H](C)/C=C/C=C3\CO[C@@H]4[C@H](O)C(C)=C[C@@H](C(=O)O1)[C@]34O)O2 (tested in a mixture with another compound) | active: 1.45 µM | – |
| CCOP(=S)(OCC)SCSC(C)(C)C | – | inactive |
| O=C(Nc1ccccc1-c1ccc(Cl)cc1)c1cccnc1Cl | inconclusive: 0.0322 µM | inactive |
| CC(C)(C)C(O)(CCc1ccc(Cl)cc1)Cn1cncn1 (stereo unspecified) | – | inactive |
| O=C(O)C=CC(F)(C(F)(F)F)C(F)(F)F | inconclusive: 15 µM | – |
| CCCSP(=O)(OCC)SCCC | inconclusive: 0.0001 µM | – |
| O=S1OCC2C(CO1)C1(Cl)C(Cl)=C(Cl)C2(Cl)C1(Cl)Cl (stereo unspecified) | active: 23 µM | – |
| CNC(=O)CSP(=O)(OC)OC | inconclusive: 0.000715 µM | – |
| CC[C@H](C)[C@H]1O[C@]2(C=C[C@@H]1C)C[C@@H]1C[C@@H](C/C=C(\C)[C@@H](O[C@H]3C[C@H](OC)[C@@H](O[C@H]4C[C@H](OC)[C@@H](NC)[C@H](C)O4)[C@H](C)O3)[C@@H](C)/C=C/C=C3\CO[C@@H]4[C@H](O)C(C)=C[C@@H](C(=O)O1)[C@]34O)O2 | inconclusive: 25 µM | – |
| FC(F)(F)C(F)(C(F)(F)F)C(F)(F)C(F)(F)CC1CO1 (stereo unspecified) | – | inactive |
| O=P1(N(CCCl)CCCl)NCCCO1 (stereo unspecified) | inconclusive: 0.0001 µM | – |
| O=C(O)C(F)(OC(F)(F)C(F)(F)C(F)(F)F)C(F)(F)F (stereo unspecified) | inconclusive: 50 µM | inactive |
| ClC1=C(Cl)[C@]2(Cl)[C@@H]3[C@@H](Cl)[C@H]4O[C@H]4[C@@H]3C1(Cl)C2(Cl)Cl | active: 15.8 µM | – |
| O=C(O)C(F)(F)C(F)(F)C(F)(F)C(F)(F)C(F)(F)C(F)(F)C(F)(F)C(F)(F)C(F)(F)F | inconclusive: 3.61 µM | – |
| ClC1=C(Cl)C2(Cl)C3C(Cl)C=CC3C1(Cl)C2(Cl)Cl (stereo unspecified) | active: 13.4 µM | – |
| O=C(O)C(F)(F)C(F)(F)C(F)(F)C(F)(F)C(F)(F)C(F)(F)F | inconclusive: 0.0114 µM | – |
| O=C(O)C(F)(F)OC(F)(F)C(F)(F)OC(F)(F)C(=O)O | inconclusive: 15 µM | – |
| CCOP(=S)(OCC)Oc1nc(Cl)c(Cl)cc1Cl | active: 24.3 µM and active: 73.3 µM | – |
| CCC1(c2ccccc2)C(=O)N=C(O)NC1=O (stereo unspecified) | inconclusive: 0.000548 µM | – |
| COP(N)(=O)SC (stereo unspecified) | inconclusive: 0.452 nM and inconclusive: 15 µM | – |
| Nc1cc(Cl)cc(C(=O)O)c1Cl | inconclusive: 0.425 µM | – |

Assay: TAMU_HCS_1.5hr_SingleDonor1434_Cytotoxicity: Cytotoxicity Assessment using High-content Screening (HCS) Fluorescent Imaging for the Texas A&M University (TAMU) 1.5-hr Human Induced Pluripotent Stem Cell (iPSC)-derived Cardiotoxicity Assay (AID 2284234)
Summary of the method: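 Human iPSC-derived cardiomyocytes dosed at 0.2, 1, 10, 100 uM final (0.5% DMSO) for 90 min at 37 C. Hoechst 33342-stained nuclei counted by 10x high-content imaging; POD is EC10, a 10% drop in total cell count versus DMSO.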

| SMILES | outcome | AC50 |
| --- | --- | --- |
| CC(C)(C)C(O)(CCc1ccc(Cl)cc1)Cn1cncn1 (stereo unspecified) | inactive | – |
| O=S1OCC2C(CO1)C1(Cl)C(Cl)=C(Cl)C2(Cl)C1(Cl)Cl (stereo unspecified) | inactive | – |
| ClC1=C(Cl)[C@]2(Cl)[C@@H]3[C@@H]4C[C@@H]([C@H]5O[C@@H]45)[C@@H]3[C@@]1(Cl)C2(Cl)Cl | inactive | – |
| CCOP(=S)(OCC)Oc1nc(Cl)c(Cl)cc1Cl | inactive | – |
| CCC1(c2ccccc2)C(=O)N=C(O)NC1=O (stereo unspecified) | – | inconclusive: 50 µM |

Assay: TAMU_PeakParms_SingleDonor1434_QT: Texas A&M University (TAMU) 1.5-hr Human Induced Pluripotent Stem Cell (iPSC)-derived Cardiomyocytes Calcium (Ca+2) Flux Assay for Cardiotoxicity: QT (decay-rise ratio) (AID 2284235)
Summary of the method: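 iPSC-derived cardiomyocytes (single donor 1434) dosed at 0.2, 1, 10, 100 uM final in 0.5% DMSO, 90 min at 37C. Ca2+ flux fluorescence decay/rise ratio; EC05 (5% increase versus DMSO) as POD, excluding beat-arrest and severe-notch data.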

| SMILES | AC50 | outcome |
| --- | --- | --- |
| CC(C)(C)C(O)(CCc1ccc(Cl)cc1)Cn1cncn1 (stereo unspecified) | active: 18.2 µM | – |
| ClC1=C(Cl)C2(Cl)C3C(Cl)C=CC3C1(Cl)C2(Cl)Cl (stereo unspecified) | – | inactive |
| CCOP(=S)(OCC)Oc1nc(Cl)c(Cl)cc1Cl | inconclusive: 50 µM | – |
| CCC1(c2ccccc2)C(=O)N=C(O)NC1=O (stereo unspecified) | inconclusive: 50 µM | – |
